Results reported in patent US20230174617A1.
Results are given in words; binding and its absence hold for the method and conditions named. A result given as binding can be weak or reduced; the word gives no strength.

The chains behind the UniProt entries cited, without tags or fusion partners. Where a name states a change or a piece, a line headed by the entry shows the natural chain unless it says otherwise.
UniProt P55899: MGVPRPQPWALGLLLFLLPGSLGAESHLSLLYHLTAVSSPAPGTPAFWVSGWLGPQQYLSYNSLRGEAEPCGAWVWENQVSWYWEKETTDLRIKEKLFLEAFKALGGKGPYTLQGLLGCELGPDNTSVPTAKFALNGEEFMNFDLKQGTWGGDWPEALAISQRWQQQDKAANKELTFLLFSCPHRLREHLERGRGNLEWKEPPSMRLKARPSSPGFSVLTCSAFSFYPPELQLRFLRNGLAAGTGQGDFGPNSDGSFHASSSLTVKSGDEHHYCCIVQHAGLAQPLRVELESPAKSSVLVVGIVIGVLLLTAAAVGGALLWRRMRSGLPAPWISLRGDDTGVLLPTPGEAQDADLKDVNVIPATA

What was measured:
[1] = biological target: recombinant human neonatal Fc receptor (rhFcRn, R&D systems) (human) (UniProt P55899); assay: SPR, rhFcRn immobilised, PG-11 as analyte
[2] = biological target: recombinant human neonatal Fc receptor (rhFcRn, R&D systems) (human) (UniProt P55899); assay: SPR steady-state plot, rhFcRn immobilised, PG-11 as analyte

binding [1]: binds
binding [2]: binds
B1: PG-11 (GLP-1E-NTIG) (Fc fusion)
chain: HGEGTFTSDVSSYLEGQAAKEFIAWLVKGGPSSGAPPPSGGGGSGGGGSGGGGSEKEKEEQEERTHTCPPCPSHTQPLGVFLFPPKPKDQLMISRTPEVTCVVVDVSQEDPEVQFNWYVDGVEVHNAKTKPREEQFNSTYRVVSVLTVLHQDWLNGKEYKCKVSNKGLPSSIEKTISKAKGQPREPQVYTLPPSQEEMTKNQVSLTCLVKGFYPSDIAVEWESNGQPENNYKTTPPVLDSDGSFFLYSRLTVDKSRWQEGNVFSCSVLHEALHNHYTQKSLSLSLGK
